Experimental findings from PubChem BioAssay AID292 (DTP/NCI, 2004) are described below.

The list does not hold the whole screen: it gathers some chemical classes. Other doses and runs of a compound may be missing. T/C gives the treated animals as a percentage of the vehicle group. Where survival is the endpoint, this PubChem deposit counts one and a half times the control or more as active, and values a quarter to a half above the control carry no call in these data; other NCI protocols may use other cut-offs. Schedule codes are those of the source, taken here to give the interval after Q, in days (D) or hours (H), and the number of doses after X.

This assay deals with B6C3F1 mice, ip Sarcoma M5076, median survival T/C. Nature of the assay: NCI In Vivo Anticancer Drug Screen. Data for tumor model Sarcoma M5076 (intraperitoneal) in B6C3F1 mice. As to conditions: T/C endpoint: median survival time, schedule: Q04DX004 (ip), vehicle: saline, higher T/C = longer survival. As to the method: The antitumor activity of compounds was measured in mice bearing transplantable tumors. Survival or tumor size were measured and the results are expressed as the measurement made in the treated group (T) divided by the measurement made in the vehicle treated control group (C). The tumor model used in this assay is Sarcoma M5076 (intraperitoneal) in B6C3F1 mice

For the molecule `CN(CCCl)CCCl`, the T/C was 133 % of control (dose: 0.31 mg/kg/injection), 163 % of control (dose: 0.62 mg/kg/injection) and 184 % of control (dose: 1.25 mg/kg/injection).
